In PubChem BioAssay AID504467 (National Center for Advancing Translational Sciences (NCATS), 2011):
About 7,700 (2.3%) of roughly 330,000 compounds were called active. Inconclusive means that the source gave no clear call. Such entries were picked first, then a sample of the others. Calls come from the whole dose curve; as a rule, active = well fitted inhibition curve with a large enough effect; inconclusive = small, poorly fitted or top-dose-only effect, or effect the other way; inactive = flat fitted curve, though single readings scatter. A potency beside an inconclusive call is a rough fit, not a confirmed value.

Test: qHTS screen for small molecules that inhibit ELG1-dependent DNA repair in human embryonic kidney (HEK293T) cells expressing luciferase-tagged ELG1; note: nearly all actives have a fitted effect of over 55% in size
Settings: HEK293T ELG1-luciferase reporter, luminescence, 16 h, DNA damage induced by 5-fluorouridine; series mostly up to 46.1 µM
In short: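 Step one: seed 2,000 cells per well. Step two: pin-transfer compound or DMSO alongside 5-fluorouridine. Step three: incubate 16 hr, 37 °C, 5% CO2. Step four: add ONE-Glo, wait 30 min, read luminescence.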
Potency is the fitted concentration of half-maximal effect.

**Q.** For `O=c1oc2c3c4c(cc2c(C(F)(F)F)c1CCN1CCOCC1)CCCN4CCC3`, which Potency is on record?
**A.** inactive

**Q.** With `CCOCCOC(=O)COc1ccc2c(=O)c(Oc3ccc(OC)cc3)coc2c1` as the compound, how does the Potency read?
**A.** inactive

**Q.** Which Potency does the source give for `CCc1nnc(NC(=O)CSc2ncc(-c3ccccc3)[nH]2)s1` here?
**A.** inconclusive: 29.1 µM [activator, partial curve, poor fit]

**Q.** With `CC(NC(=O)c1ccc(C(F)(F)F)cc1)C(c1ccccc1)N1CCOCC1` (stereo unspecified) as the compound, how does the Potency read?
**A.** inactive

**Q.** Which Potency does the source give for `CCOC(=O)Nc1sc2c(c1C(N)=O)CCC(C)C2` (stereo unspecified) here?
**A.** inconclusive: 32.6 µM [activator, partial curve, poor fit]

**Q.** Which Potency does the source give for `COc1ccc(C(=O)/C=C/c2cn(CC(O)CN3CCOCC3)c3ccccc23)cc1` (stereo unspecified) here?
**A.** inconclusive: 16.4 µM [inhibitor, single point]

**Q.** With `Cc1cccc2c(N)c3c(nc12)N(C)CC3` as the compound, how does the Potency read?
**A.** inactive

**Q.** With `CN1CCN(c2ccc(C(CC(N)=O)NC(=O)c3ccccc3)cc2[N+](=O)[O-])CC1` (stereo unspecified) as the compound, how does the Potency read?
**A.** inactive

**Q.** With `CSc1ccccc1NC(=O)CN(C)CC(=O)Nc1ccccc1C(F)(F)F` as the compound, how does the Potency read?
**A.** inconclusive: 23.1 µM [inhibitor, single point]

**Q.** With `N#C/C(=C\c1c(N2CCCCC2)nc2ccccn2c1=O)C(=O)NCc1ccco1` as the compound, how does the Potency read?
**A.** inconclusive: 25.9 µM [inhibitor, single point]

**Q.** Which Potency does the source give for `CNc1ncnc2c1ncn2[C@@H]1O[C@H](CO)[C@@H](O)[C@H]1O` here?
**A.** inconclusive: 35.5 µM [activator, single point]

**Q.** With `COCCOC(=O)c1c(C)oc2ccc(NS(=O)(=O)c3ccccc3)cc12` as the compound, how does the Potency read?
**A.** inactive

**Q.** With `O=C(NCCc1ccccc1)C1CCN(C2CCN(Cc3ccco3)CC2)CC1` as the compound, how does the Potency read?
**A.** inconclusive: 20.6 µM [inhibitor, partial curve, poor fit]

**Q.** With `Cc1ccc(OCc2cc(C(=O)N(C)CCc3ccccn3)no2)cn1` as the compound, how does the Potency read?
**A.** inactive

**Q.** Which Potency does the source give for `CCCCCCCNC(=O)c1cc(-c2ccncc2)nc2ccccc12` here?
**A.** inconclusive: 29.1 µM [inhibitor, single point]

**Q.** Which Potency does the source give for `O=C(CSc1nnc(-c2cccnc2)n1-c1ccccc1)Nc1ccccc1` here?
**A.** inactive

**Q.** For `CC(C)Cn1cc(F)c(=O)n(CC(C)C)c1=O`, which Potency is on record?
**A.** inactive

**Q.** With `CCCCCCCCNC(=O)/C(C#N)=C/c1ccc2c(c1)OCCO2` as the compound, how does the Potency read?
**A.** inactive

**Q.** With `NC(=O)c1cccn1-c1ncc(C(F)(F)F)cc1Cl` as the compound, how does the Potency read?
**A.** inactive

**Q.** For `CCOC(=O)N1CCN(c2ccc(C(=O)CC)cc2F)CC1`, which Potency is on record?
**A.** inconclusive: 8.2 µM [activator, partial curve, poor fit]

**Q.** With `CN(C)CCCNc1cc(C(C)(C)C)nc2c(-c3ccccc3)cnn12` as the compound, how does the Potency read?
**A.** inconclusive: 6.51 µM [activator, partial curve]

**Q.** Which Potency does the source give for `Cc1ccc(-c2nn(-c3ccccc3)cc2/C=C/C(=O)O)o1` here?
**A.** inconclusive: 0.82 µM [activator, full curve, poor fit]

**Q.** With `O=C(CSc1nc2ccccc2c(=O)n1-c1ccc(F)cc1)Nc1cc(S(=O)(=O)N2CCOCC2)ccc1Cl` as the compound, how does the Potency read?
**A.** inconclusive: 6.51 µM [inhibitor, partial curve]

**Q.** For `Cc1ccc(C(=O)Nc2ccsc2C(=O)O)cc1`, which Potency is on record?
**A.** inconclusive: 11.6 µM [activator, partial curve]

**Q.** For `COC(=O)c1ccc(NC(=O)c2ccccc2NS(=O)(=O)c2ccccc2)cc1`, which Potency is on record?
**A.** inconclusive: 5.8 µM [inhibitor, partial curve, poor fit]

**Q.** For `O=C(Nc1ccccc1)c1ccc(S(=O)(=O)NCc2cccnc2)cc1`, which Potency is on record?
**A.** inconclusive: 29.1 µM [inhibitor, single point]

**Q.** With `CCN=C1S/C(=C\c2ccc(N3CCOCC3)cc2C)C(=O)N1CC` as the compound, how does the Potency read?
**A.** active: 5.8 µM

**Q.** Which Potency does the source give for `O=C(O)c1cc(-c2ccc(-c3c(-c4ccc5c(c4)OCO5)noc3-c3ccsc3)cc2)nc2ccccc12` here?
**A.** inconclusive: 2.31 µM [activator, partial curve]

**Q.** Which Potency does the source give for `O=c1c2ccccc2cnn1-c1ccc(Cl)cc1` here?
**A.** inconclusive: 2.91 µM [activator, full curve]

**Q.** For `Cc1cc(C)nc(NC(=O)c2ccc(C)c([N+](=O)[O-])c2)n1`, which Potency is on record?
**A.** inactive

**Q.** For `COc1ccccc1OCCN1CSC(=S)N(C)C1`, which Potency is on record?
**A.** inconclusive: 25.9 µM [inhibitor, single point]

**Q.** For `N=c1c(S(=O)(=O)c2ccc(Cl)cc2)cc2c(=O)n3ccccc3nc2n1C1CCCCC1`, which Potency is on record?
**A.** inconclusive: 23.1 µM [activator, single point]

**Q.** For `Cc1cc(C(=O)CSc2nnc(-c3ccc(F)cc3)o2)c(C)n1CC1COc2ccccc2O1` (stereo unspecified), which Potency is on record?
**A.** inactive

**Q.** For `O=C(NCCc1c[nH]c2ccccc12)C(=O)NCC1OCCCN1S(=O)(=O)c1cccs1` (stereo unspecified), which Potency is on record?
**A.** inconclusive: 25.9 µM [inhibitor, partial curve, poor fit]

**Q.** Which Potency does the source give for `COc1cc2ccccc2cc1C(=O)Nc1ccc(CN2CCOCC2)cc1` here?
**A.** inconclusive: 18.3 µM [activator, single point]

**Q.** With `CCN(c1ccccc1)S(=O)(=O)c1ccc(C(=O)OC(C)C(=O)NCCC2=CCCCC2)cc1` (stereo unspecified) as the compound, how does the Potency read?
**A.** inconclusive: 9.2 µM [inhibitor, partial curve]

**Q.** For `CC(=O)Nc1nnc(SCC(=O)NCCOc2ccccc2)s1`, which Potency is on record?
**A.** inactive

**Q.** With `CCOC(=O)c1ccc(NC(=O)Cn2ncc(Cl)c(Cl)c2=O)cc1` as the compound, how does the Potency read?
**A.** inconclusive: 23.1 µM [inhibitor, single point]

**Q.** Which Potency does the source give for `O=C(COc1ccc(Cl)cc1)Nc1ncccn1` here?
**A.** inconclusive: 20.6 µM [activator, partial curve]

**Q.** With `CCNC(=S)NNC(=O)c1cc(-c2ccc(OC)cc2)nc2ccccc12` as the compound, how does the Potency read?
**A.** inconclusive: 2.06 µM [activator, partial curve]

**Q.** With `O=C(CSc1nnc(-c2ccccc2)c(-c2ccccc2)n1)Nc1ccc(Br)cn1` as the compound, how does the Potency read?
**A.** inconclusive: 23.1 µM [inhibitor, single point]

**Q.** With `CSc1cccc(NC(=O)c2ccco2)c1` as the compound, how does the Potency read?
**A.** inconclusive: 20.6 µM [activator, partial curve]

**Q.** Which Potency does the source give for `Cc1ccc(-n2cc(C(=O)c3cc(Cl)ccc3O)cc(C#N)c2=O)cc1` here?
**A.** inactive

**Q.** With `CCN1CCN(CC(=O)Nc2nc3ccccc3s2)CC1` as the compound, how does the Potency read?
**A.** inconclusive: 20.6 µM [activator, single point]

**Q.** Which Potency does the source give for `CCOc1cccc(C(=O)Nc2cc(C)ccc2NC(=O)c2ccco2)c1` here?
**A.** inactive

**Q.** For `CCOC(=O)C(=CNc1ccc(OC)cc1[N+](=O)[O-])C(=O)OCC`, which Potency is on record?
**A.** inconclusive: 8.2 µM [inhibitor, partial curve]

**Q.** For `O=C1/C(=C\c2cc(Cl)c(O)c(Cl)c2)SC(=S)N1Cc1ccccc1`, which Potency is on record?
**A.** inconclusive: 20.6 µM [inhibitor, partial curve]

**Q.** With `COc1ccc(S(=O)(=O)N2CCC(C(=O)NCCc3ccccc3)CC2)cc1OC` as the compound, how does the Potency read?
**A.** inactive

**Q.** For `C/C(=N\NC(=O)c1ccc(C)cc1)C1C(=O)c2ccccc2C1=O`, which Potency is on record?
**A.** inconclusive: 29.1 µM [inhibitor, single point]

**Q.** For `C/C(=N\Nc1nncc2ccccc12)c1ccc(O)cc1`, which Potency is on record?
**A.** inconclusive: 0.73 µM [activator, full curve]

**Q.** For `CCCN1Cc2cccc(C(=O)N3CCN(c4cc(Cl)ccc4C)CC3)c2C1=O`, which Potency is on record?
**A.** active: 20.6 µM

**Q.** With `CCC(NC(=S)NCc1ccc(F)cc1)c1ccc(C)cc1` (stereo unspecified) as the compound, how does the Potency read?
**A.** inactive

**Q.** With `O=C1/C(=C/c2ccccc2)CCCc2ccccc21` as the compound, how does the Potency read?
**A.** inconclusive: 14.6 µM [activator, partial curve]

**Q.** For `COc1cc(OC)c(OC)cc1CCC(C)NC(=O)Cc1ccccc1` (stereo unspecified), which Potency is on record?
**A.** inactive

**Q.** For `Cc1ccccc1N1CCN(S(=O)(=O)c2ccc3ccccc3c2)CC1`, which Potency is on record?
**A.** inconclusive: 2.31 µM [activator, partial curve, poor fit]

**Q.** Which Potency does the source give for `COc1cc(CCCN2C(=S)NC[C@@H]2Cc2ccccc2)cc(OC)c1OC` here?
**A.** inconclusive: 20.6 µM [inhibitor, partial curve]

**Q.** Which Potency does the source give for `CCN(CC)S(=O)(=O)c1cc(NC(=O)c2cc(-c3ccccn3)nc3ccccc23)ccc1C` here?
**A.** active: 8.2 µM

**Q.** With `CC(=O)Nc1ccccc1C(=O)C(=O)Nc1ccc(C(=O)NCC2CCCO2)cc1` (stereo unspecified) as the compound, how does the Potency read?
**A.** inactive

**Q.** For `O=C(COc1ccc2ccccc2c1)NCCn1ccc2ccccc21`, which Potency is on record?
**A.** inactive

**Q.** Which Potency does the source give for `Fc1ccc2nc(Nc3nc4cc5c(cc4s3)OCCO5)sc2c1` here?
**A.** inconclusive: 9.2 µM [activator, partial curve]

**Q.** Which Potency does the source give for `Cc1cc2occ(CC(=O)N(CC(C)C)c3c(N)n(Cc4ccccc4)c(=O)[nH]c3=O)c2cc1C` here?
**A.** inactive

**Q.** Which Potency does the source give for `COc1ccc(CN(Cc2ccccn2)C(=O)CN2C(=O)COc3ccccc32)cc1` here?
**A.** inconclusive: 23.1 µM [inhibitor, partial curve]

**Q.** For `CCCCNC(=S)N/N=C/c1cccc(OCC)c1O`, which Potency is on record?
**A.** inconclusive: 6.51 µM [inhibitor, full curve, poor fit]

**Q.** For `O=C1Nc2ccccc2CCC1Sc1nnc(-c2ccc(Cl)cc2)s1` (stereo unspecified), which Potency is on record?
**A.** inconclusive: 29.1 µM [inhibitor, single point]

**Q.** For `COc1ccc(/C=C/C(=O)OCC(=O)NC2CCS(=O)(=O)C2)cc1` (stereo unspecified), which Potency is on record?
**A.** inactive

**Q.** Which Potency does the source give for `COc1ccc(S(=O)(=O)N2CCCCCC2)cc1C(=O)OCC(=O)NCC(C)C` here?
**A.** inconclusive: 29.1 µM [inhibitor, partial curve, poor fit]

**Q.** For `CCOC(=O)N1CCC(NC(=O)C2CCCN(Cc3nc(-c4cccc(C)c4)oc3C)C2)CC1` (stereo unspecified), which Potency is on record?
**A.** inconclusive: 8.2 µM [inhibitor, partial curve]

**Q.** For `Clc1ccc(Cc2noc(-c3cccs3)n2)cc1`, which Potency is on record?
**A.** inconclusive: 16.4 µM [activator, partial curve]

**Q.** Which Potency does the source give for `COc1cc2c(cc1OC)C(c1cccc([N+](=O)[O-])c1)N(C(=O)c1ccc(F)cc1)CC2` (stereo unspecified) here?
**A.** inconclusive: 29.1 µM [inhibitor, single point]

**Q.** With `Cc1ccc(-c2nn(C)c(=O)c3ccccc23)cc1CNC(=O)c1ccccc1` as the compound, how does the Potency read?
**A.** active: 16.4 µM

**Q.** Which Potency does the source give for `COc1ccc(N2CCN(c3ccc4nnc(CCC(=O)Nc5ccc(C)cc5)n4n3)CC2)cc1` here?
**A.** inconclusive: 16.4 µM [inhibitor, single point]
